Some results were stated once for a whole list of compounds, not compound by compound. At least one compound was matched to its structure with a doubt left.
Assay: In vitro cumulative drug release from devices in PBS (pH 7.4) at 37° C. under gentle shaking
Type: physicochemical
Settings: for sustained release of antibiotics, period: released from device; for approximate release rate: loading dosages 20 ug to 40 mg per device

| SMILES | sustained release of antibiotics, period | approximate release rate |
| --- | --- | --- |
| Clc1ccccc1C(c1ccccc1)(c1ccccc1)n1ccnc1 [Clotrimazole] | 1-2 weeks | – |
| C[C@]12CC[C@@H]3c4ccc(O)cc4CC[C@H]3[C@@H]1CC[C@@H]2O [Estradiol] | – | 5-20 ug per device per day |
| Cc1ncc([N+](=O)[O-])n1CCO [Metronidazole] | 1-2 weeks | – |
| CC(=O)[C@H]1CC[C@H]2[C@@H]3CCC4=CC(=O)CC[C@]4(C)[C@H]3CC[C@]12C [progesterone] | – | 5-20 ug per device per day |

Reference: patent US20220387303A1, “Vaginal Drug Delivery Device” (THE REGENTS OF THE UNIVERSITY OF CALIFORNIA, priority 2019, published 2022)
